Measurements reported in PubChem BioAssay AID1224830 (NIAID, 2016)
Shown is a random part of about 18,000 reagents. Over the whole deposit, about 2,900 (16%) got an active call. 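Calls are made per well; low scores hint the gene aids the LPS response, high scores that it dampens it.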 Repeated entries: four replicate wells of each siRNA pool.

Aim: 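Regulators of TLR4 signalling towards TNF-alpha in macrophage-like cells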 (primary screen)
System: human THP-1 monocytic leukaemia cells, TNF dual-luciferase reporter clone, PMA-differentiated to macrophage-like cells
Reagents: siRNA pool against human genes, 50 nM
Time to read-out: LPS for 4 h, given about 3 days after siRNA transfection
Treatment: bacterial LPS (TLR4 ligand), 10 ng/ml
Measured: 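Ratio of firefly to renilla light, scaled to the plate median and expressed as a robust z-score per replicate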
Scale: TNF reporter robust z-score: higher = stronger TNF reporter response to LPS
Call rule: 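a well is active when its z-score exceeds 2.8 or falls below -1.5; control wells carry no call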

HCP5 [SID315454409]
- TNF reporter robust z-score: 1.28
- activity call: inactive

HCP5 [SID315454409]
- TNF reporter robust z-score: 0.26
- activity call: inactive

HCP5 [SID315454409]
- TNF reporter robust z-score: 0.48
- activity call: inactive

HCP5 [SID315454409]
- TNF reporter robust z-score: 1.39
- activity call: inactive

VPS4A [SID315455968]
- TNF reporter robust z-score: 1.17
- activity call: inactive

VPS4A [SID315455968]
- TNF reporter robust z-score: 0.8
- activity call: inactive

VPS4A [SID315455968]
- TNF reporter robust z-score: -0.44
- activity call: inactive

VPS4A [SID315455968]
- TNF reporter robust z-score: 0.36
- activity call: inactive

ZSCAN21 [SID315452217]
- TNF reporter robust z-score: 0.71
- activity call: inactive

ZSCAN21 [SID315452217]
- TNF reporter robust z-score: 0.59
- activity call: inactive

ZSCAN21 [SID315452217]
- TNF reporter robust z-score: 0.07
- activity call: inactive

ZSCAN21 [SID315452217]
- TNF reporter robust z-score: 0.44
- activity call: inactive

KLK8 [SID315454687]
- TNF reporter robust z-score: 0.92
- activity call: inactive

KLK8 [SID315454687]
- TNF reporter robust z-score: 0.49
- activity call: inactive

KLK8 [SID315454687]
- TNF reporter robust z-score: -0.67
- activity call: inactive

KLK8 [SID315454687]
- TNF reporter robust z-score: 0.4
- activity call: inactive

ITGB7 [SID315449563]
- TNF reporter robust z-score: 0.23
- activity call: inactive

ITGB7 [SID315449563]
- TNF reporter robust z-score: -0.41
- activity call: inactive

ITGB7 [SID315449563]
- TNF reporter robust z-score: -0.66
- activity call: inactive

ITGB7 [SID315449563]
- TNF reporter robust z-score: -0.21
- activity call: inactive

DSC2 [SID315448381]
- TNF reporter robust z-score: -0.65
- activity call: inactive

DSC2 [SID315448381]
- TNF reporter robust z-score: 127
- activity call: active

DSC2 [SID315448381]
- TNF reporter robust z-score: -0.33
- activity call: inactive

DSC2 [SID315448381]
- TNF reporter robust z-score: 1.63
- activity call: inactive

PPP1R13B [SID315455191]
- TNF reporter robust z-score: 0.41
- activity call: inactive

PPP1R13B [SID315455191]
- TNF reporter robust z-score: -1.1
- activity call: inactive

PPP1R13B [SID315455191]
- TNF reporter robust z-score: 0.46
- activity call: inactive

PPP1R13B [SID315455191]
- TNF reporter robust z-score: -0.32
- activity call: inactive

ARHGAP8 [SID315455429]
- TNF reporter robust z-score: -0.07
- activity call: inactive

ARHGAP8 [SID315455429]
- TNF reporter robust z-score: 0.21
- activity call: inactive

ARHGAP8 [SID315455429]
- TNF reporter robust z-score: -0.34
- activity call: inactive

ARHGAP8 [SID315455429]
- TNF reporter robust z-score: 0.73
- activity call: inactive

C16orf89 [SID315462284]
- TNF reporter robust z-score: 0.31
- activity call: inactive

C16orf89 [SID315462284]
- TNF reporter robust z-score: -0.19
- activity call: inactive

C16orf89 [SID315462284]
- TNF reporter robust z-score: -0.2
- activity call: inactive

C16orf89 [SID315462284]
- TNF reporter robust z-score: 0.13
- activity call: inactive

METTL2A [SID315464016]
- TNF reporter robust z-score: -0.87
- activity call: inactive

METTL2A [SID315464016]
- TNF reporter robust z-score: -0.4
- activity call: inactive

METTL2A [SID315464016]
- TNF reporter robust z-score: -0.97
- activity call: inactive

METTL2A [SID315464016]
- TNF reporter robust z-score: 0.83
- activity call: inactive

ELP6 [SID315457215]
- TNF reporter robust z-score: -0.03
- activity call: inactive

ELP6 [SID315457215]
- TNF reporter robust z-score: 0.73
- activity call: inactive

ELP6 [SID315457215]
- TNF reporter robust z-score: -0.36
- activity call: inactive

ELP6 [SID315457215]
- TNF reporter robust z-score: 0.66
- activity call: inactive

LINC01465 [SID315463669]
- TNF reporter robust z-score: 0.16
- activity call: inactive

LINC01465 [SID315463669]
- TNF reporter robust z-score: 0.49
- activity call: inactive

LINC01465 [SID315463669]
- TNF reporter robust z-score: 0.79
- activity call: inactive

LINC01465 [SID315463669]
- TNF reporter robust z-score: 1.48
- activity call: inactive

Entries listed above marked active (1):
DSC2 [SID315448381]
- TNF reporter robust z-score: 127
- activity call: active
